# Experimental data: the supplement of paper PMC8728848
# The other results are listed elsewhere or left out.
# Legend:
# Experiment in all cases: glycan array binding signal (z-score within array); higher = stronger binding
# Settings in all cases: glycan notation: IUPAC condensed, linker removed
# Gal(a1-3)Gal(b1-3)GlcNAc = target: Gal(a1-3)Gal(b1-3)GlcNAc
# Method in brief: (§1)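 Glycan array data were curated from 3228 arrays in the Consortium for Functional Glycomics database and kept only where the protein sequence was available. Glycan names were converted to IUPAC-condensed notation, and columns mapping to the same glycan were averaged. The binding signal is a within-array Z-score, averaged across arrays of the same protein sequence at different concentrations or buffers and across linkers. Negative Z-scores can be read as non-binding.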
# [1] = target: Gal(a1-3)Gal(b1-3)GlcNAc(b1-2)Man
# Method in brief: as §1
# [2] = target: Gal(a1-3)Gal(b1-3)GlcNAc(b1-2)Man(a1-3)[Gal(a1-3)Gal(b1-3)GlcNAc(b1-2)Man(a1-6)]Man(b1-4)GlcNAc(b1-4)GlcNAc
# Method in brief: as §1
# [3] = target: Gal(a1-3)Gal(b1-3)GlcNAc(b1-3)GalNAc
# Method in brief: as §1
# [4] = target: Gal(a1-3)Gal(b1-3)GlcNAc(b1-6)GalNAc
# Method in brief: as §1
# [5] = target: Gal(a1-3)Gal(b1-3)[Fuc(a1-4)]GlcNAc(b1-2)Man(a1-3)[Gal(a1-3)Gal(b1-3)[Fuc(a1-4)]GlcNAc(b1-2)Man(a1-6)]Man(b1-4)GlcNAc(b1-4)GlcNAc
# Method in brief: as §1
# Gal(a1-3)Gal(b1-4)Glc = target: Gal(a1-3)Gal(b1-4)Glc
# Method in brief: as §1
# Gal(a1-3)Gal(b1-4)GlcNAc = target: Gal(a1-3)Gal(b1-4)GlcNAc
# Method in brief: as §1
# [6] = target: Gal(a1-3)Gal(b1-4)GlcNAc(b1-2)Man
# Method in brief: as §1
# [7] = target: Gal(a1-3)Gal(b1-4)GlcNAc(b1-2)Man(a1-3)[Gal(a1-3)Gal(b1-4)GlcNAc(b1-2)Man(a1-6)]Man(b1-4)GlcNAc(b1-4)GlcNAc
# Method in brief: as §1
# [8] = target: Gal(a1-3)Gal(b1-4)GlcNAc(b1-3)GalNAc
# Method in brief: as §1
# [9] = target: Gal(a1-3)Gal(b1-4)GlcNAc(b1-6)GalNAc
# Method in brief: as §1
# [10] = target: Gal(a1-3)Gal(b1-4)[Fuc(a1-3)]GlcNAc
# Method in brief: as §1
# [11] = target: Gal(a1-3)Gal(b1-4)[Fuc(a1-3)]GlcNAc(b1-2)Man(a1-3)[Gal(a1-3)Gal(b1-4)[Fuc(a1-3)]GlcNAc(b1-2)Man(a1-6)]Man(b1-4)GlcNAc(b1-4)GlcNAc
# Method in brief: as §1
# Gal(a1-3)GalNAc = target: Gal(a1-3)GalNAc
# Method in brief: as §1
# [12] = target: Gal(a1-3)[Gal(a1-4)]Gal(b1-4)GlcNAc
# Method in brief: as §1
# [13] = target: Gal(a1-4)Gal(b1-3)GlcNAc(b1-2)Man(a1-3)[Gal(a1-4)Gal(b1-3)GlcNAc(b1-2)Man(a1-6)]Man(b1-4)GlcNAc(b1-4)GlcNAc
# Method in brief: as §1
# Gal(a1-4)Gal(b1-4)Glc = target: Gal(a1-4)Gal(b1-4)Glc
# Method in brief: as §1
# Gal(a1-4)Gal(b1-4)GlcNAc = target: Gal(a1-4)Gal(b1-4)GlcNAc
# Method in brief: as §1
# [14] = target: Gal(a1-4)Gal(b1-4)GlcNAc(b1-2)Man(a1-3)[Gal(a1-4)Gal(b1-4)GlcNAc(b1-2)Man(a1-6)]Man(b1-4)GlcNAc(b1-4)GlcNAc
# Method in brief: as §1
# [15] = target: Gal(a1-4)Gal(b1-4)GlcNAc(b1-3)Gal(b1-4)Glc
# Method in brief: as §1
# Gal(a1-4)GlcNAc = target: Gal(a1-4)GlcNAc
# Method in brief: as §1
# Gal(a1-6)Glc = target: Gal(a1-6)Glc
# Method in brief: as §1
# Gal(b1-2)Gal = target: Gal(b1-2)Gal
# Method in brief: as §1
# Gal(b1-3)Gal = target: Gal(b1-3)Gal
# Method in brief: as §1
# Gal(b1-3)Gal(b1-4)GlcNAc = target: Gal(b1-3)Gal(b1-4)GlcNAc
# Method in brief: as §1
# Gal(b1-3)GalNAc = target: Gal(b1-3)GalNAc
# Method in brief: as §1
# [16] = target: Gal(b1-3)GalNAc(a1-3)[Fuc(a1-2)]Gal(b1-4)Glc
# Method in brief: as §1
# [17] = target: Gal(b1-3)GalNAc(a1-3)[Fuc(a1-2)]Gal(b1-4)GlcNAc
# Method in brief: as §1
# Gal(b1-3)GalNAc(b1-3)Gal = target: Gal(b1-3)GalNAc(b1-3)Gal
# Method in brief: as §1
# [18] = target: Gal(b1-3)GalNAc(b1-3)Gal(a1-4)Gal(b1-4)Glc
# Method in brief: as §1
# [19] = target: Gal(b1-3)GalNAc(b1-4)Gal(b1-4)Glc
# Method in brief: as §1
# [20] = target: Gal(b1-3)GalNAc(b1-4)[Neu5Ac(a2-3)]Gal(b1-4)Glc
# Method in brief: as §1
# Gal(b1-3)GlcNAc = target: Gal(b1-3)GlcNAc
# Method in brief: as §1
# [21] = target: Gal(b1-3)GlcNAc(a1-3)Gal(b1-4)GlcNAc
# Method in brief: as §1
# [22] = target: Gal(b1-3)GlcNAc(a1-6)Gal(b1-4)GlcNAc
# Method in brief: as §1
# Gal(b1-3)GlcNAc(b1-2)Man = target: Gal(b1-3)GlcNAc(b1-2)Man
# Method in brief: as §1
# [23] = target: Gal(b1-3)GlcNAc(b1-2)Man(a1-3)[Gal(b1-3)GlcNAc(b1-2)Man(a1-6)]Man(b1-4)GlcNAc(b1-4)GlcNAc
# Method in brief: as §1
binder,measurement,setting,value
EUL D1A first (Oryza sativa) (protein) MFGFGHHHNQAPAAPSDPNQIFKIFCRANENYCLTVRDSAVVLAPVNPKDEHQHWFKDMRFSTKVKDGEGMPAFALVNKATGLAVKHSLGQSHPVKLVPFNPEYEDASVLWTESKDVGKGFRCIRMVNNTRLNLDAFHGDKDHGGVRDGTTVVLWEWCKGDNQSWKILPWGPEAHSSSPGAATILEQKLISEEDLNSAVDHHHHHH,glycan array binding signal (z-score),Gal(a1-3)Gal(b1-3)GlcNAc,-0.691
same,glycan array binding signal (z-score),[1],-0.994
same,glycan array binding signal (z-score),[2],3.31
same,glycan array binding signal (z-score),[3],0.676
same,glycan array binding signal (z-score),[4],0.341
same,glycan array binding signal (z-score),[5],0.805
same,glycan array binding signal (z-score),Gal(a1-3)Gal(b1-4)Glc,0.141
same,glycan array binding signal (z-score),Gal(a1-3)Gal(b1-4)GlcNAc,-0.008
same,glycan array binding signal (z-score),[6],-0.173
same,glycan array binding signal (z-score),[7],-0.282
same,glycan array binding signal (z-score),[8],-0.604
same,glycan array binding signal (z-score),[9],-0.214
same,glycan array binding signal (z-score),[10],-0.411
same,glycan array binding signal (z-score),[11],1.55
same,glycan array binding signal (z-score),Gal(a1-3)GalNAc,-0.91
same,glycan array binding signal (z-score),[12],-0.456
same,glycan array binding signal (z-score),[13],2.2
same,glycan array binding signal (z-score),Gal(a1-4)Gal(b1-4)Glc,0.4
same,glycan array binding signal (z-score),Gal(a1-4)Gal(b1-4)GlcNAc,0.261
same,glycan array binding signal (z-score),[14],-0.21
same,glycan array binding signal (z-score),[15],0.024
same,glycan array binding signal (z-score),Gal(a1-4)GlcNAc,-0.638
same,glycan array binding signal (z-score),Gal(a1-6)Glc,0.718
same,glycan array binding signal (z-score),Gal(b1-2)Gal,0.765
same,glycan array binding signal (z-score),Gal(b1-3)Gal,-0.947
same,glycan array binding signal (z-score),Gal(b1-3)Gal(b1-4)GlcNAc,0.168
same,glycan array binding signal (z-score),Gal(b1-3)GalNAc,-0.735
same,glycan array binding signal (z-score),[16],-1.67
same,glycan array binding signal (z-score),[17],1.02
same,glycan array binding signal (z-score),Gal(b1-3)GalNAc(b1-3)Gal,-0.277
same,glycan array binding signal (z-score),[18],-0.207
same,glycan array binding signal (z-score),[19],0.305
same,glycan array binding signal (z-score),[20],-0.052
same,glycan array binding signal (z-score),Gal(b1-3)GlcNAc,-0.766
same,glycan array binding signal (z-score),[21],0.125
same,glycan array binding signal (z-score),[22],-0.2
same,glycan array binding signal (z-score),Gal(b1-3)GlcNAc(b1-2)Man,0.139
same,glycan array binding signal (z-score),[23],-0.317

# No new results follow: entries from further up.
binder,measurement,setting,value
EUL D1A first (Oryza sativa) (protein) MFGFGHHHNQAPAAPSDPNQIFKIFCRANENYCLTVRDSAVVLAPVNPKDEHQHWFKDMRFSTKVKDGEGMPAFALVNKATGLAVKHSLGQSHPVKLVPFNPEYEDASVLWTESKDVGKGFRCIRMVNNTRLNLDAFHGDKDHGGVRDGTTVVLWEWCKGDNQSWKILPWGPEAHSSSPGAATILEQKLISEEDLNSAVDHHHHHH,glycan array binding signal (z-score),[7],-0.282
same,glycan array binding signal (z-score),[8],-0.604
same,glycan array binding signal (z-score),[9],-0.214
same,glycan array binding signal (z-score),[10],-0.411
same,glycan array binding signal (z-score),[11],1.55
same,glycan array binding signal (z-score),Gal(a1-3)GalNAc,-0.91
same,glycan array binding signal (z-score),[12],-0.456
